## Library screening results

Chains of the proteins cited; added tags and fusions are not shown.
UniProt E9BF75, entry or part of it: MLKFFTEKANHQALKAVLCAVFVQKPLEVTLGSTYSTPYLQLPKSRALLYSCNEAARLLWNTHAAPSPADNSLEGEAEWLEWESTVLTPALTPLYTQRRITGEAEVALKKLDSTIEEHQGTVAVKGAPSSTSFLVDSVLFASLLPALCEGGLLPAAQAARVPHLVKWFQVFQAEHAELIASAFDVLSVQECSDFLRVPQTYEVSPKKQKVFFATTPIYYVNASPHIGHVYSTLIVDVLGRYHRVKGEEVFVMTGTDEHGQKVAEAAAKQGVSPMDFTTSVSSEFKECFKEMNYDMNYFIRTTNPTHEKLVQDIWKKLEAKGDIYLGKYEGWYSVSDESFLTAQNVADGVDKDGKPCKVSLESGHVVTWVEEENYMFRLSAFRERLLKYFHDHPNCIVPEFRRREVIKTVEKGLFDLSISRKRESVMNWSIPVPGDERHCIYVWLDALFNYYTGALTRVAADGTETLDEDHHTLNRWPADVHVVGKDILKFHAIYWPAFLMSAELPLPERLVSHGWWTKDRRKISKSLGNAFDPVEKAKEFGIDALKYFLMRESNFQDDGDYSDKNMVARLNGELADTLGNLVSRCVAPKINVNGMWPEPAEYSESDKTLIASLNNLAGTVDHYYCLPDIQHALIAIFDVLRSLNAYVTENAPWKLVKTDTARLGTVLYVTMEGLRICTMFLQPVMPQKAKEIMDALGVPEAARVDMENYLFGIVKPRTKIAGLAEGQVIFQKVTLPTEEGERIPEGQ

Source: ChEMBL document CHEMBL3988442, “University of Dundee, Small-Polar-MMV Screening Library” (2021).

Mtb heat-shock: 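Assay on Mycobacterium tuberculosis, filed only as a heat shock assay from Cornell; the read-out is not stated. The concentration is filed as 10 mM, unlikely as a test dose, so the dose is not known. Higher reads as stronger inhibition (inferred: compounds with an IC50 in retests scored well above the rest). Of about 69,000 compounds tested this way, about 930 (1.4%) reached 50% or more in at least one test.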
LdMetRS: 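Methionyl-tRNA synthetase (putative), Leishmania donovani (UniProt E9BF75). Primary screen of methionyl-tRNA synthetase; the read-out is not stated. The test concentration is not given. The values are filed as inhibition. Size under these conditions: about 68,000 compounds, about 24 of them at 50% or above in at least one test.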
Mtb growth Cornell: 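Whole-cell assay for inhibitors of Mycobacterium tuberculosis growth, labelled Cornell in the record; the read-out is not stated. The concentration is filed as 10 mM, unlikely as a test dose, so the dose is not known. Higher means stronger inhibition (inferred from two other growth screens of the library). Size under these conditions: about 53,000 compounds, about 900 of them at 50% or above in at least one test.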

All values are in %.
The controls that fix the scale are not given in the record; negative values are as filed.
This is an unselected part of the compounds tested.
A dash means the value is not listed here; it may have been measured.

O=C(O)C(F)(F)F.O=C(O)C(F)(F)F.[H][C@@]12COC[C@]1(COc1cccnc1)CN(Cc1ccsc1)C2 gave Mtb heat-shock: -29.89%; Mtb growth Cornell: 8.969%. Result for CN1[C@H]2CC[C@@H]1CN(C(=O)CCc1csc(N)n1)CC2 was LdMetRS: 13.19%. CN(Cc1cncnc1)[C@@H]1CN(C(=O)C2CC2)[C@@H]2CCCO[C@H]12 read LdMetRS: 17.57%. CC1=Nc2c(c(=O)[nH]n2C(C)C)C(c2cccs2)S1 (stereo not given) read Mtb heat-shock: 23.02%; LdMetRS: 19.5%. CC(C)c1cnc(CN(C)C2CCN(CCCc3cnn(C)c3)C2)o1 (stereo not given) gave Mtb heat-shock: -12.52%; LdMetRS: 8.382%; Mtb growth Cornell: -41.79%. Result for COCC1CN(S(=O)(=O)N(C)C)Cc2ncn(CC3CC3)c21.O=C(O)C(F)(F)F (stereo not given) was Mtb heat-shock: -32.61%. With Cn1cc(CN2CCC3(CCCN3Cc3cccnc3)CC2)cn1 the screen gave LdMetRS: 19.38%. Cc1cc(C(=O)NCC(C)C)c2c(C3CCCN3)noc2n1 (stereo not given) gave Mtb heat-shock: -39.91%; LdMetRS: 5.143%.

CS(=O)(=O)Cc1ccccc1NCc1cc(Cl)ccc1Cl gave Mtb heat-shock: -12.17%; LdMetRS: 17.01%; Mtb growth Cornell: -2.49%. Result for CCc1cnc(N2C[C@H]3CN(Cc4ccc(OC)cc4)C(=O)[C@H]3C2)nc1 was LdMetRS: 10.1%. Cc1nnsc1C(=O)NCc1cccnc1N(C)Cc1ccccc1 read Mtb heat-shock: -29.04%; LdMetRS: 12.03%. Cc1noc(C(C)C)c1C(=O)NCCCN1CCCCCC1=O gave Mtb heat-shock: -5.238%; LdMetRS: 9.659%. O=C(O)CCCC(=O)NCC1(O)CCN(c2ccnc3cccnc23)C1 (stereo not given) gave Mtb heat-shock: 6.388%; LdMetRS: 7.143%; Mtb growth Cornell: 11.54%. With [H][C@@]12CC[C@H](Oc3cccc(F)c3)[C@]1([H])CN(C(=O)c1ccnnc1)C2 the screen gave Mtb heat-shock: 9.187%; Mtb growth Cornell: -6.412%. CCc1ncc(CN[C@@H]2CCCN(C(C)=O)[C@H]2c2ccc(C)s2)cn1.Cl gave Mtb heat-shock: 10.75%; Mtb growth Cornell: 15.97%. O=C(O)C(F)(F)F.[H][C@@]12CCN(S(C)(=O)=O)[C@]1([H])CC[C@@H](C(=O)NCCc1ccccn1)O2 gave Mtb heat-shock: -25.85%; Mtb growth Cornell: 21.42%.

CCN(CC)c1ccc2ccc(C(=O)N3CCCCO3)cn12.O=C(O)C(F)(F)F read Mtb heat-shock: 56.41%; Mtb growth Cornell: 36.7%. Cc1nc(CN2C(=O)C[C@@H]3[C@@H]2CCN3S(=O)(=O)C2CC2)cs1 read LdMetRS: 11.66%. O=C1C[C@H]2CC[C@@H](CN1)N2C1CCOCC1 gave LdMetRS: 3.75%. C1CCC(NC2CCCN(Cc3noc(C4CC4)n3)C2)C1 (stereo not given) read Mtb heat-shock: 4.027%; LdMetRS: 7.614%. With Cl.O=C(Nc1nc2c(s1)CNCC2)C1CC1 the screen gave Mtb heat-shock: 12.02%; Mtb growth Cornell: -36.17%. CNC(=O)C1CCCCN1C(=O)Cc1csc(-c2ccc(C)o2)n1 (stereo not given) read Mtb heat-shock: -2.803%; LdMetRS: 9.409%; Mtb growth Cornell: 14.07%. With O=C(O)C(F)(F)F.O=C(O)C(F)(F)F.[H][C@]12CN(Cc3ccncc3)C(=O)[C@@]1([H])CN(C1CCOCC1)C2 the screen gave Mtb heat-shock: 0.4349%; Mtb growth Cornell: 0.333%. For O=c1[nH]cc(Nc2ccc(Cl)cc2)c(=O)[nH]1 the result was Mtb heat-shock: -7.988%; LdMetRS: 4.805%; Mtb growth Cornell: -15.86%.

With CCN(Cc1noc(C)n1)C(=O)C(c1ccccc1C)N(C)C (stereo not given) the screen gave Mtb heat-shock: -0.6684%; LdMetRS: 7.326%. Result for Cn1cc(S(=O)(=O)N2CCCC2Cn2ccnc2)cc1C(N)=O (stereo not given) was Mtb heat-shock: 8.509%; LdMetRS: 13.83%; Mtb growth Cornell: 0.2131%. O=C(NCCC1CN(Cc2c[nH]cn2)CCO1)Nc1ccccc1 (stereo not given) read Mtb heat-shock: -15.55%; LdMetRS: 11.68%; Mtb growth Cornell: 37.48%. Result for CCN(Cc1cccs1)S(=O)(=O)N(C)C(C)C was Mtb heat-shock: -11.62%; LdMetRS: 3.237%; Mtb growth Cornell: 30.52%. COc1ccc(CNC(=O)NCCc2csc(C)n2)cn1 gave Mtb heat-shock: -16.34%; LdMetRS: 8.547%; Mtb growth Cornell: -38.22%. Result for CN(C)c1ncnc2c1CCN(Cc1nccs1)CC2 was LdMetRS: 13.14%. COCCN(C)C[C@@H]1CN(C(=O)c2c(F)ccc(OC)c2F)C[C@@H]1CO gave Mtb heat-shock: -30.62%; LdMetRS: 5.674%; Mtb growth Cornell: -26.77%. Cc1noc(C)c1CN1CCn2cc(CN3CCCCC3)nc2C1 read LdMetRS: 3.846%.

With CN(C)c1nc(N)nc(CSCCC(=O)Nc2cccc(Cl)c2)n1 the screen gave Mtb heat-shock: -14.22%; LdMetRS: 3.559%; Mtb growth Cornell: 12.53%. For COCC1Cn2nnc(-c3cnn(C)c3)c2CN1Cc1ccsc1.O=C(O)C(F)(F)F (stereo not given) the result was Mtb heat-shock: 14.81%; Mtb growth Cornell: 40.11%. With Cc1noc(C)c1CNC(=O)Nc1ccc(N2CCOC(C)C2)cc1 (stereo not given) the screen gave Mtb heat-shock: 10.06%; LdMetRS: 16.52%; Mtb growth Cornell: 103.9%.

Some entries from above, unchanged:

| SMILES | Mtb heat-shock | LdMetRS | Mtb growth Cornell |
|---|---|---|---|
| `Cc1nc(CN2C(=O)C[C@@H]3[C@@H]2CCN3S(=O)(=O)C2CC2)cs1` | - | 11.66% | - |
| `O=C(O)CCCC(=O)NCC1(O)CCN(c2ccnc3cccnc23)C1` (stereo not given) | 6.388% | 7.143% | 11.54% |